We go through one substance from article PMC12561473.

Amino acid sequences for entries named in this document (tags omitted).
UniProt Q99873: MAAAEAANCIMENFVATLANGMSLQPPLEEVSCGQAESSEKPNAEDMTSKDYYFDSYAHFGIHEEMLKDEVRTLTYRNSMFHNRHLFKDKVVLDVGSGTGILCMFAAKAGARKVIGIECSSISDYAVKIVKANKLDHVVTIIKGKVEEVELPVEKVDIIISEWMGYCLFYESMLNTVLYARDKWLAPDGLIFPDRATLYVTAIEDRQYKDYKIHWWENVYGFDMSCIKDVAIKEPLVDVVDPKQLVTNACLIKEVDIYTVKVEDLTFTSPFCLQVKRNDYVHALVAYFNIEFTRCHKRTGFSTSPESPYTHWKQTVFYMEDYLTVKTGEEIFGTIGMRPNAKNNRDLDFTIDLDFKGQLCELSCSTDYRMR

This experiment addresses T1, Flag-ATG4B (UniProt Q9Y4P1).
T1 sequence: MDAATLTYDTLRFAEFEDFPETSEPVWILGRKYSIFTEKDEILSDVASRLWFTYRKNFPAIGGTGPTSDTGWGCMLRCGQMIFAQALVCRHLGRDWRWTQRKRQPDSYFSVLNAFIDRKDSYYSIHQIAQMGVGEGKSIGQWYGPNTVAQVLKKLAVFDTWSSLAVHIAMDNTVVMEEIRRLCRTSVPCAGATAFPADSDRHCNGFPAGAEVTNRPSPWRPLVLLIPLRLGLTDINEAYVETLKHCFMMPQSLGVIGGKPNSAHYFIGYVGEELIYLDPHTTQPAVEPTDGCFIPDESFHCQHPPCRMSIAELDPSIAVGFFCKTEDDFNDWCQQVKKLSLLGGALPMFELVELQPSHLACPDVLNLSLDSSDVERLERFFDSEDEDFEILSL
Put plainly: affinity purification with mass spectrometry; co-immunoprecipitation from cells stably expressing Flag-ATG4B combined with mass spectrometry.

Results are given in words; binding and its absence hold for the method and conditions named. In cells and extracts the contact can be indirect. Here binding means that the protein was enriched with, or labelled near, the bait; the list need not be complete. Where a sequence is shown, tags or fusion partners need not be part of it.

For the substance “PRMT1 (endogenous) (from UniProt Q99873 1-371)”, the binding result is “binds”.
